# Experimental data reported in PubChem BioAssay AID1347076 (National Center for Advancing Translational Sciences (NCATS), 2019).
# In all, about 400,000 compounds went through this assay and about 13,000 (3.2%) were called active. This list was built around the results that the source calls inconclusive (neither active nor inactive); the mix of calls is not that of the screen. Calls come from the whole dose curve; as a rule, active = well fitted cell-killing curve with a large enough effect; inconclusive = small, poorly fitted or top-dose-only effect, or effect the other way; inactive = flat fitted curve, though single readings scatter. A potency beside an inconclusive call is a rough fit, not a confirmed value.
# Assay: qHTS assay for MDR1-selective chemotherapeutics: Primary screen using the drug-selected MDR subline cells KB-V1; note: nearly all actives have a fitted effect of over 60% in size
# Details: KB-V1 MDR cells viability, CellTiter-Glo, 72 h; activity change, negative = cytotoxicity: at 46.1 µM (top of the series)
# Outline: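 Readout: CellTiter-Glo luminescence, 10 min after addition. Cells: KB-V1 MDR subline, 72 h at 37 degrees C with compound. Analysis: corrected, normalized data fitted to concentration-effect curves.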
# % is set by controls: 0 for no effect and ±100 for the full control effect; potency is the fitted concentration of half-maximal effect.
Structure (SMILES),Potency,"activity change, negative = cytotoxicity"
O=[N+]([O-])c1cccc(/C=C/c2nc[nH]c2[N+](=O)[O-])c1,inactive,
OC[C@@H]1CN(Cc2cccs2)C[C@H](n2cnc3c(NCc4ccco4)ncnc32)O1,inactive,
O=c1[nH]c(CSc2ncccn2)nc2c1cnn2-c1ccccc1,"inconclusive: 11.6 µM [cytotoxic, partial curve]",
Cc1ccc(CN2CCN(/N=C/c3sccc3C)CC2)c(C)c1,active: 14.6 µM,
CC(OC(=O)c1ccccc1)C(=O)NCc1ccco1 (stereo not given),inactive,
C#CCOCCOCCOCCNc1nc(N2CCN(C(=O)CCCCCCCCCCNC(=O)[C@@H](CCC(=O)O)n3cc(CCCCCN)nn3)CC2)nc(N2CCN(C(=O)CCCCCCCCCCNC(=O)[C@H](CCCCN)n3cc(C[C@@H](C)CC)nn3)CC2)n1,inactive,
O=C1c2ccccc2C(=O)N1CCCc1nc(-c2ccccc2)no1,active: 18.4 µM,
Cc1[nH]n(-c2ccc(Cl)cc2)c(=O)c1C(=O)c1ccccc1,active: 13 µM,
O=C(C[C@H]1CC[C@@H]2[C@H](COC[C@@H](O)CN2Cc2ccc(Cl)cc2)O1)NCCc1ccccc1,"inconclusive: 10.3 µM [cytotoxic, partial curve]",
NC(N)=N/N=C/c1ccccc1Cl,"inconclusive: 16.4 µM [cytotoxic, partial curve]",
CNC(=S)N/N=C/c1ccc(-c2cccc(C(=O)O)c2)o1,active: 20.6 µM,
CCn1c(SCc2nc(-c3ccc(OC)c(OC)c3)no2)nnc1-c1cccs1,active: 9.2 µM,
Cc1ccc(NC(=O)c2cc(-n3cnnc3)ccc2Cl)cc1,inactive,
CC(=O)c1sc(NS(=O)(=O)c2ccc(C)cc2)nc1C,"inconclusive: 0.731 µM [cytotoxic, full curve, poor fit]",
O=C(NC1CCCCC1)N1CCCC(CNS(=O)(=O)Cc2ccccc2)C1 (stereo not given),"inconclusive: 29.1 µM [cytotoxic, single point]",
Cc1ccc2nc(COc3ccccc3NC(=O)c3ccc(F)cc3)cc(=O)n2c1,"inconclusive: 29.1 µM [rising, single point]",
O=C(CSc1nc2c([nH]c3ccccc32)c(=O)n1-c1ccc(Cl)cc1)c1ccccc1,"inconclusive: 23.1 µM [rising, single point]",
CCOc1ccc(NS(=O)(=O)c2ccc3c(c2)CCCN3C(=O)C2CCC2)cc1,inactive,
COc1ccc(S(=O)(=O)N2CCOCC2)cc1NC(=O)CN1CCCc2ccccc21,"inconclusive: 29.1 µM [cytotoxic, single point]",
CCCC1NC(=O)c2cc3ccccc3cc2-n2c1nc1ccc(F)cc1c2=O (stereo not given),"inconclusive: 23.1 µM [cytotoxic, single point]",
COc1cc(-c2nc(Cc3c(F)cccc3Cl)no2)cc(OC)c1OC,"inconclusive: 2.91 µM [cytotoxic, full curve]",
CCCCNc1cc(F)nc(N)n1,inactive,
COc1ccc(/C=N/NC(=O)c2cccnc2)cc1COc1ccc([N+](=O)[O-])cc1,"inconclusive: 16.4 µM [cytotoxic, single point]",
COC(=O)C1=C(C)NC(C)=C(C(=O)OC)C1c1ccccc1OCc1c(C)no[n+]1[O-],"inconclusive: 8.2 µM [cytotoxic, partial curve]",

Structure (SMILES),Potency,"activity change, negative = cytotoxicity"
COc1ccc(Cl)cc1NC(=S)NCCC(c1ccccc1)c1ccccc1,"inconclusive: 18.4 µM [cytotoxic, single point]",
CCN(C(=O)COC(=O)c1ccc(C=O)cc1)c1c(N)n(Cc2ccccc2)c(=O)[nH]c1=O,inactive,
CNc1ccc([N+](=O)[O-])cc1C(=O)O,,inconclusive: 0.165%
COc1ccc(Cc2cnc(N)nc2N)cc1OC,"inconclusive: 5.8 µM [cytotoxic, full curve, poor fit]",
Cc1ccc(Cl)cc1-n1ncc2c(N3CCN(Cc4ccccc4)CC3)ncnc21,"inconclusive: 29.1 µM [cytotoxic, single point]",
CCCCCN(C(=O)CCC(=O)OCC(=O)c1ccc(C(C)CC)cc1)c1c(N)n(CCCC)c(=O)[nH]c1=O (stereo not given),inactive,
CCOc1ccc(C2c3cc(OC)c(OC)cc3CC(=O)N2c2ccccc2)cc1 (stereo not given),inactive,
O=C(Cc1ccc([N+](=O)[O-])cc1)N1N=C2CCCCC2C1(O)C(F)(F)F (stereo not given),"inconclusive: 16.4 µM [cytotoxic, single point]",
Cc1cccc(NS(=O)(=O)c2ccc(C)c(C(=O)NCC(c3ccco3)N3CCCCC3)c2)c1 (stereo not given),"inconclusive: 11.6 µM [cytotoxic, partial curve, poor fit]",
O=C(O)c1ccccc1C(=O)Nc1ccc(Oc2ccc3ccccc3c2)cc1,,inconclusive: 31.4%
Cc1ccc(C)c(NC(=S)NC(NC(=O)/C=C/c2ccccc2)C(Cl)(Cl)Cl)c1 (stereo not given),"inconclusive: 23.1 µM [cytotoxic, single point]",
Cc1cccc(C(=O)Nc2ccnc(-c3cccnc3)n2)c1,inactive,
CC(=O)N1CCN(C(=O)c2ccc(S(=O)(=O)Nc3ccccc3C)cc2)CC1,inactive,
O=C(NCCN1CCOCC1)c1cc(-c2ccccc2)nc2ccccc12,"inconclusive: 11.6 µM [cytotoxic, partial curve]",
c1ccc(-n2c(SCC3CCCCO3)nnc2-c2cccs2)cc1 (stereo not given),"inconclusive: 32.6 µM [cytotoxic, single point]",
COc1ccc(CNC(=O)c2cc3ccccc3o2)cc1OC,active: 8.2 µM,
O=C(N1CCCCC1)N1CCN(C(c2ccccc2)c2ccccc2)CC1,"inconclusive: 13 µM [cytotoxic, partial curve]",
CCCc1nc2c(sc3nc4c(cc32)COC(C)(C)C4)c(=O)n1CCN(C)C,"inconclusive: 0.0073 µM [cytotoxic, full curve]",
Cc1nn(-c2ccccc2)c(C)c1NC(=O)COC(=O)CCCOc1ccccc1,"inconclusive: 8.2 µM [rising, single point]",
CC(=O)c1cccc(S(=O)(=O)Nc2ccc3nc(C)sc3c2)c1,"inconclusive: 23.1 µM [cytotoxic, partial curve]",
Cc1cc(NC(=O)c2noc3c2CCCCC3)nn1Cc1ccc(Cl)cc1,inactive,
C[C@@H](CSc1ccccc1)CN1CC[C@H](NC(=O)OCc2ccccc2)CCC1=O,"inconclusive: 16.4 µM [cytotoxic, partial curve]",
Cc1ccc(Cc2c(-c3ccc(Br)cc3)nc3ccc(Br)cn23)cc1,"inconclusive: 8.2 µM [cytotoxic, partial curve, poor fit]",
CCOc1cc2[nH]c(=S)n(CC3CCCO3)c(=O)c2cc1OCC (stereo not given),active: 11.6 µM,

Structure (SMILES),Potency,"activity change, negative = cytotoxicity"
O=C(COC(=O)c1ccc2c(c1)OCCO2)NCCc1ccc(F)cc1,"inconclusive: 29.1 µM [rising, single point]",
COC(=O)CSC1=C(C#N)C(c2ccc(C)cc2)C2=C(CCCC2=O)N1 (stereo not given),inactive,
CCN(CC)C(=O)c1nc[nH]c1C(=O)N1CCC(C)CC1,inactive,
NC(=O)COC(=O)c1ccccc1SCC(=O)NC1CCCCCC1,,inconclusive: 3.37%
C[C@@]12C(=O)Nc3cc(F)c(F)cc3C(=O)N1[C@H]1c3ccccc3OC[C@@H]1[C@@H]2c1ccccc1,"inconclusive: 29.1 µM [cytotoxic, single point]",
C=CCC[C@@H](Cc1ccc(F)cc1)C(=O)OC[C@H]1CCCN1C(=O)[C@@H](CC=C)CC(=O)N[C@H](CO)Cc1ccccc1,inactive,
O=C(Nc1cc(C(F)(F)F)ccc1N1CCCC1)c1ccc2c(c1)OCO2,inactive,
c1ccc(CSc2ccc3nnc(-c4ccccn4)n3n2)cc1,"inconclusive: 20.6 µM [cytotoxic, single point]",
COc1ccc(N(Cc2cc3cccc(C)c3[nH]c2=O)C(=O)c2cccc(Cl)c2)cc1,"inconclusive: 6.51 µM [cytotoxic, single point]",
COc1ccc(S(=O)(=O)N(C)c2ccc(C(=O)NCc3ccco3)cc2)cc1OC,"inconclusive: 18.4 µM [cytotoxic, single point]",
COC(=O)C[C@H]1c2cc(F)ccc2S(=O)(=O)N1Cc1ccccc1OC,"inconclusive: 16.4 µM [cytotoxic, partial curve, poor fit]",
CN(CC(=O)Nc1ccc(Cl)cc1)C(=O)CNC(=O)c1ccc2c(c1)OCO2,"inconclusive: 29.1 µM [cytotoxic, single point]",
COc1cc(S(=O)(=O)NCCc2c(C)[nH]c3ccccc23)c(C)cc1C,"inconclusive: 29.1 µM [cytotoxic, single point]",
O=C(COc1ccccc1Cc1ccccc1)Nc1cccc(S(=O)(=O)N2CCOCC2)c1,active: 5.17 µM,
COc1ccc2c(c1)nc(N)n2Cc1ccccc1,inactive,
N#Cc1cc(-c2ccccc2)cnc1Cl,inactive,
CC1CC(C)(C)NC(=S)N1CCC(=O)N1CCN(c2ccccc2)CC1 (stereo not given),"inconclusive: 11.6 µM [cytotoxic, partial curve]",
CC(=O)N1CCc2cc(S(=O)(=O)C(C)CC(=O)Nc3ccc(Br)c(C)c3)ccc21 (stereo not given),"inconclusive: 7.31 µM [cytotoxic, partial curve]",
CCOC(=O)c1c(-c2ccccc2)nc2cc(C)ccn12,active: 14.6 µM,
Nc1[nH]nc2c1NN(c1ccc(Cl)cc1Cl)N2,"inconclusive: 29.1 µM [rising, single point]",
COc1ccc(NC(=O)COC(=O)c2ccc(C)c(S(=O)(=O)N3CCCCC3)c2)cc1,inactive,
COc1ccc(NC(=O)C2=C(C)Nc3ncnn3C2c2cccn2C)cc1 (stereo not given),"inconclusive: 0.0146 µM [rising, full curve]",

# 3 entries out of the list, arranged by length of the SMILES, falling:
Structure (SMILES),Potency,"activity change, negative = cytotoxicity"
CCn1c(SCc2nc(-c3ccc(OC)c(OC)c3)no2)nnc1-c1cccs1,active: 9.2 µM,
CC1CC(C)(C)NC(=S)N1CCC(=O)N1CCN(c2ccccc2)CC1 (stereo not given),"inconclusive: 11.6 µM [cytotoxic, partial curve]",
c1ccc(-n2c(SCC3CCCCO3)nnc2-c2cccs2)cc1 (stereo not given),"inconclusive: 32.6 µM [cytotoxic, single point]",
